Here are results for six molecules from article PMC12431861.

Amino acid sequences for entries named in this document (tags omitted).
UniProt Q80U70: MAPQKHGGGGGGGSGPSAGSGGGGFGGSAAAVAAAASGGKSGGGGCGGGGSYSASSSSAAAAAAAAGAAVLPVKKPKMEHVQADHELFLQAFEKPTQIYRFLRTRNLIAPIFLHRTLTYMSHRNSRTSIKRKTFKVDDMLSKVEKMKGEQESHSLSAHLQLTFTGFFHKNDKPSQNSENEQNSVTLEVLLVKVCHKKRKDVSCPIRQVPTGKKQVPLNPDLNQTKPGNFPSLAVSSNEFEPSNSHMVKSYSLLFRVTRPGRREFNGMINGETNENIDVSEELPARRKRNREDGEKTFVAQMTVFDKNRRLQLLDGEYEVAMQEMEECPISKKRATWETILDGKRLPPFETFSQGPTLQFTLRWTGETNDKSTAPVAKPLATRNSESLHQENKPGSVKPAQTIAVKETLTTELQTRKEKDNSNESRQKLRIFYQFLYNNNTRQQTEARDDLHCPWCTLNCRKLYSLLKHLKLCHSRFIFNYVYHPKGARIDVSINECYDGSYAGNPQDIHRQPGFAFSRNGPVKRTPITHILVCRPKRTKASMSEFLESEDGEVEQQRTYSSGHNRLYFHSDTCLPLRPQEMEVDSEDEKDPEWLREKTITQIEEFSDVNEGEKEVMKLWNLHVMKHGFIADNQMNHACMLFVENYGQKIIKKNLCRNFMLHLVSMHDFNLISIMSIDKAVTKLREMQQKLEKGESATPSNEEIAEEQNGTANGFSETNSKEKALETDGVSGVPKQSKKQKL
UniProt Q91ZW3: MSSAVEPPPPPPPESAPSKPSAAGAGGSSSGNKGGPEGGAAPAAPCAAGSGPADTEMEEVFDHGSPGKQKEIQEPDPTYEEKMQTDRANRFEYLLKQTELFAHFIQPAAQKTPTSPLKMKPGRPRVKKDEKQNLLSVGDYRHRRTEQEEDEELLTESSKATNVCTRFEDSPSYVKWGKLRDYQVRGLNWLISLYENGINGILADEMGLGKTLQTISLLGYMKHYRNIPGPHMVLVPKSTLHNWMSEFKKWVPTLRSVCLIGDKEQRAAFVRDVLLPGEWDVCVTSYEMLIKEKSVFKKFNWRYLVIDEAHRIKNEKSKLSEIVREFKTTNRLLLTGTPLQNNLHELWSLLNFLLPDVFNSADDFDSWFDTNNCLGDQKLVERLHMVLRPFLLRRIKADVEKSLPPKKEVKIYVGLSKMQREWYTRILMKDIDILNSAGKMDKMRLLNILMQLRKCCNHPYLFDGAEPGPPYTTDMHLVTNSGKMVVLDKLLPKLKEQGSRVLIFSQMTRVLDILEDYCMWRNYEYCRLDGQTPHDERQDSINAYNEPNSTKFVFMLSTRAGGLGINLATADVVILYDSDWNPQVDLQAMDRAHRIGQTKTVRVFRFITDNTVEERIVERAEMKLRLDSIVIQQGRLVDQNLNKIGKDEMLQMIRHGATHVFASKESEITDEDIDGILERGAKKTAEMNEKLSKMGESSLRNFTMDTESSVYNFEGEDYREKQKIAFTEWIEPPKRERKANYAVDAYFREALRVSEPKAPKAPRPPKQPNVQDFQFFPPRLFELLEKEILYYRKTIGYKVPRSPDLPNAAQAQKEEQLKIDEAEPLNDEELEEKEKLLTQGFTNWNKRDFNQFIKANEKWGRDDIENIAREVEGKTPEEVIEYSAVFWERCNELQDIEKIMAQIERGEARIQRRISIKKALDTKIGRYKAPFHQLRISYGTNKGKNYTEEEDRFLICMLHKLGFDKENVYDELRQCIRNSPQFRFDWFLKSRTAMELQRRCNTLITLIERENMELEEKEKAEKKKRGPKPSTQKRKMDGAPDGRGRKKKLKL
UniProt Q64511: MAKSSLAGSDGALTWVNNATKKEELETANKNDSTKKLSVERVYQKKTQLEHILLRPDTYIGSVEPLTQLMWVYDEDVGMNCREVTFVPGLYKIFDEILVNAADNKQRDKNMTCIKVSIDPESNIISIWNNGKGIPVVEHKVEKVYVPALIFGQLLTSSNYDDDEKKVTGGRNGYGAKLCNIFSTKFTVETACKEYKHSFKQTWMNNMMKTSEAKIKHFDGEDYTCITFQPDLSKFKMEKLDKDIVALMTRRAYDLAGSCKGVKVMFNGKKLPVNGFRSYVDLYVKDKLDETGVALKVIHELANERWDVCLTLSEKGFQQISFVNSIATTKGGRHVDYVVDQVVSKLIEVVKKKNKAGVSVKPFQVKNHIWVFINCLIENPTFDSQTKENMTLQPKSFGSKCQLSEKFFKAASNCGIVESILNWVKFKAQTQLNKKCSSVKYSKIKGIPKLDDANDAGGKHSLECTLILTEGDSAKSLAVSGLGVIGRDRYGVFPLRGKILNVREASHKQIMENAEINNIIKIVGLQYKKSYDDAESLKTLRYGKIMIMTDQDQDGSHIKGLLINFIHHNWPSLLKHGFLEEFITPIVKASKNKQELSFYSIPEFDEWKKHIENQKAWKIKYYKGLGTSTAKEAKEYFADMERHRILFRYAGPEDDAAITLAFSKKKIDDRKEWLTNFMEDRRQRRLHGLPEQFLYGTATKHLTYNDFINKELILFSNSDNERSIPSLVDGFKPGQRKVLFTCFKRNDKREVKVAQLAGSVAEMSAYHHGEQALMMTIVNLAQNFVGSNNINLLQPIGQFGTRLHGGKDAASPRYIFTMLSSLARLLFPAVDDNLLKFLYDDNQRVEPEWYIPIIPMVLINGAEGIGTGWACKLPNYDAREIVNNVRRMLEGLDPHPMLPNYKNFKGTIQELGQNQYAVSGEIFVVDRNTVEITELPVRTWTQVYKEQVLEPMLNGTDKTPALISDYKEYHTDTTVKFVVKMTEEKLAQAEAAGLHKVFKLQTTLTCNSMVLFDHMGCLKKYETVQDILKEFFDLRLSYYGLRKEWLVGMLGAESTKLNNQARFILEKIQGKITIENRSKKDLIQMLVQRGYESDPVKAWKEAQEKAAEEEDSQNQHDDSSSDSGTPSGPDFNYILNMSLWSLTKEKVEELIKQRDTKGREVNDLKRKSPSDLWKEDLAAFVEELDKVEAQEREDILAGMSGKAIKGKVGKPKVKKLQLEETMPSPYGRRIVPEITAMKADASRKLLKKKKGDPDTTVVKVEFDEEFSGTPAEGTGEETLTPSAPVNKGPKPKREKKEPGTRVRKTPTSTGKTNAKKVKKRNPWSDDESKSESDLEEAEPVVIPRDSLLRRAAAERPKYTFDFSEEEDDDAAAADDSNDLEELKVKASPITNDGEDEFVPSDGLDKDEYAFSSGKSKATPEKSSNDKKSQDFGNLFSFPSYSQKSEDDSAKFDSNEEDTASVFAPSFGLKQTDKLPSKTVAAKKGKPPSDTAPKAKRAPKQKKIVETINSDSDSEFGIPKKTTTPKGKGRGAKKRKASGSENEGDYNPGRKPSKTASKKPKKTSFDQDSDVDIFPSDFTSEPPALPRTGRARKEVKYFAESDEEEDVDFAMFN
UniProt Q8BX22: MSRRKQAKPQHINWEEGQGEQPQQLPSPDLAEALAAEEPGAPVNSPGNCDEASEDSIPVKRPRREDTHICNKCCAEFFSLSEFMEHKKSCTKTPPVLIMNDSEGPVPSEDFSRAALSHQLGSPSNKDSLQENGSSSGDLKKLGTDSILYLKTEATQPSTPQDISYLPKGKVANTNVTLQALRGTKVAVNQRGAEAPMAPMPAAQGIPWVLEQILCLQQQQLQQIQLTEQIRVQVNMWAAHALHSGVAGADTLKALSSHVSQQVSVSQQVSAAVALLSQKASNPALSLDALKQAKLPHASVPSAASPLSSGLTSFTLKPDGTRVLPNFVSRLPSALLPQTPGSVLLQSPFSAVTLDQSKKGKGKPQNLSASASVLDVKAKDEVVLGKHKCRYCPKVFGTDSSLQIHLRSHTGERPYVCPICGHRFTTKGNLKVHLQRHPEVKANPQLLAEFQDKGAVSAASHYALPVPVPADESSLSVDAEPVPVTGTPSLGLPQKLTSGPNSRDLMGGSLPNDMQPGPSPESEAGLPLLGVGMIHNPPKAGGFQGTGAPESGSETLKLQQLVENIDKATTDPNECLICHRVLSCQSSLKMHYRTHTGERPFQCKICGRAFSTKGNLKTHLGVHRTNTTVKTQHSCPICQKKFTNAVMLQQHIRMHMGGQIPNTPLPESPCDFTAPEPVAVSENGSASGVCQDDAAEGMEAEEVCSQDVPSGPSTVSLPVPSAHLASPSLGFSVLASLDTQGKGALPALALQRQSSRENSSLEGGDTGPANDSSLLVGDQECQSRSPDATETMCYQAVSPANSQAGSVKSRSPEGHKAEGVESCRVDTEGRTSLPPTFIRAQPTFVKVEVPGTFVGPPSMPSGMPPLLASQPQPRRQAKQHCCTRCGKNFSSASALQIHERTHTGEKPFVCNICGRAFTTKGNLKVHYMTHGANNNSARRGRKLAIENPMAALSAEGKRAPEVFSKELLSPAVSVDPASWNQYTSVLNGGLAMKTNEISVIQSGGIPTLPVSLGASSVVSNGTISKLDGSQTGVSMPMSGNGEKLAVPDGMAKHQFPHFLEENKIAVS

Read-outs that look alike come from different tables or passages of the source. No constants are given. Whether binding was seen depends on the method and setting. In cells and extracts the contact can be indirect. These calls come from enrichment with a bait or labelling near it, and not all partners need be listed.

What all share (assay): affinity purification with mass spectrometry; ChIP-SICAP: ES and NS cells fixed with 1.5% formaldehyde, chromatin sonicated, immunoprecipitated with anti-CTCF (D31H2), DNA biotinylated by TdT, eluted and recaptured on streptavidin beads, on-bead digestion, Orbitrap MS; abundances normalised to CTCF
For assay [1], the target named is T1, CCCTC-binding factor (CTCF), immunoprecipitated from ES and NS cell chromatin in ChIP-SICAP (mouse (endogenous in ES and NS cells)) (UniProt Q61164).
T1 sequence: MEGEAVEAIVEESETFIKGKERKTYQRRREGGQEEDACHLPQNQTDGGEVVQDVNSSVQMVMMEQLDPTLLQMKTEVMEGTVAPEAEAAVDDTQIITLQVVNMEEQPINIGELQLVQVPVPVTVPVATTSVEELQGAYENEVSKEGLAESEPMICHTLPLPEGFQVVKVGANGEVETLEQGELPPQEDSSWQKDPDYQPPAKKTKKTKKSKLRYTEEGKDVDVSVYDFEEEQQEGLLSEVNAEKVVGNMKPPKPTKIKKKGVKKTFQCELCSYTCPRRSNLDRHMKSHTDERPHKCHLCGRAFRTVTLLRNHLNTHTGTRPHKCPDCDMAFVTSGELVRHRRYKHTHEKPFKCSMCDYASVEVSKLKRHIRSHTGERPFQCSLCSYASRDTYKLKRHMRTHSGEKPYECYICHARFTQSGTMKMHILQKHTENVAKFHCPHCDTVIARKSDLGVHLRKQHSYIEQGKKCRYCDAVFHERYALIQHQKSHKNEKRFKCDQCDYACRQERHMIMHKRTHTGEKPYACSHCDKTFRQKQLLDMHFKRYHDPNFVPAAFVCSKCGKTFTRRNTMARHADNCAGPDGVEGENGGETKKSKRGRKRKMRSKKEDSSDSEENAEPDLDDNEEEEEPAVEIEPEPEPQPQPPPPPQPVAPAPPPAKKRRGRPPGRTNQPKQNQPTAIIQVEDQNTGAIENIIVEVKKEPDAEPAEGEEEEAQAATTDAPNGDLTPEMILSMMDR

In assay [2] the target is T2, CCCTC-binding factor (CTCF), immunoprecipitated from ES and NS cell chromatin in ChIP-SICAP (mouse (endogenous in ES and NS cells)), Q61164.
T2 chain: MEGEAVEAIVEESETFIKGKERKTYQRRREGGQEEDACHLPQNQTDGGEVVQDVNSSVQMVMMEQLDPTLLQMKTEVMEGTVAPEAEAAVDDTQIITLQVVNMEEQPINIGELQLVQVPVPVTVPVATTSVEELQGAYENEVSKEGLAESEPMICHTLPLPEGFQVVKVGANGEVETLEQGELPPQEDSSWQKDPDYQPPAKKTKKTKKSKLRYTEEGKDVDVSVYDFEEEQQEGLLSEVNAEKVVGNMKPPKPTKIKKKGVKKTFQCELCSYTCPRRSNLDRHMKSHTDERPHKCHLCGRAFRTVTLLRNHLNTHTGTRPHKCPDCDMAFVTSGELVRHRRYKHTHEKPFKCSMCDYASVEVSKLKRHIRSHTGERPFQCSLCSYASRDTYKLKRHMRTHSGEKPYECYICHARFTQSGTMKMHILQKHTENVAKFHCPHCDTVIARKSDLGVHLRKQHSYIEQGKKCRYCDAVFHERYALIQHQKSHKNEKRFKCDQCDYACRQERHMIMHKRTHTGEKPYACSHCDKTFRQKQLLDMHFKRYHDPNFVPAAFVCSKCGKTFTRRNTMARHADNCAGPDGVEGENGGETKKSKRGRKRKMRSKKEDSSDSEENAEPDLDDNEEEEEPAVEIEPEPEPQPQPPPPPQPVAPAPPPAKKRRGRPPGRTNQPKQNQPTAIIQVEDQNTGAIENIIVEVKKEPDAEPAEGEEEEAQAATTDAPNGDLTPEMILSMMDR
The conditions noted are these: remark: other sources report otherwise.

Assay [3] addresses T1, CCCTC-binding factor (CTCF), immunoprecipitated from ES and NS cell chromatin in ChIP-SICAP (mouse (endogenous in ES and NS cells)). This is another data set of the same source.

Take Suz12 (from UniProt Q80U70 1-741): in assay [1], the binding entry was “binds”.
As to “SWI/SNF family chromatin remodeller Smarca5 (from UniProt Q91ZW3 1-1051)”, the binding entry in assay [1] is “binds”.
On the same count and under the same terms, the same measure for “topoisomerase 2B (from UniProt Q64511 1-1612)”: “binds”.
In the case of Sall4 (from UniProt Q8BX22 1-1067), in assay [1], the binding entry is given as “binds”.

B1: Pds5b, Q4VA53 1-1446 (protein)
chain: MAHSKTRTNDGKITYPPGVKEISDKISKEEMVRRLKMVVKTFMDMDQDSEEEKELYLNLALHLASDFFLKHPDKDVRLLVACCLADIFRIYAPEAPYTSPDKLKDIFMFITRQLKGLEDTKSPQFNRYFYLLENIAWVKSYNICFELEDSNEIFTQLYRTLFSVINNGHNQKVHMHMVDLMSSIICEGDTVSQELLDTVLVNLVPAHKNLNKQAYDLAKALLKRTAQAIEPYITNFFNQVLMLGKTSISDLSEHVFDLILELYNIDSHLLLSVLPQLEFKLKSNDNEERLQVVKLLAKMFGAKDSELASQNKPLWQCYLGRFNDIHVPIRLECVKFASHCLMNHPDLAKDLTEYLKVRSHDPEEAIRHDVIVSIVTAAKKDILLVNDHLLNFVRERTLDKRWRVRKEAMMGLAQIYKKYSLQSAAGKDAAKQISWVKDKLLHIYYQNSIDDRLLVERIFAQYMVPHNLETTERMKCLYYLYATLDLNAVKALNEMWKCQNLLRHQVKDLLDLIKQPKTDASVKAIFSKVMVITRNLPDPGKAQDFMKKFTQVLEDDEKIRKQLEALVSPTCSCKQAEGCVREITKKLGNPKQPTNPFLEMIKFLLERIAPVHIDTESISALIKQVNKSIDGTADDEDEGVPTDQAIRAGLELLKVLSFTHPISFHSAETFESLLACLKMDDEKVAEAALQIFKNTGSKIEEDFPHIRSALLPVLHHKSKKGPPRQAKYAIHCIHAIFSSKETQFAQIFEPLHKSLDPSNLEHLITPLVTIGHIALLAPDQFAAPLKSLVATFIVKDLLMNDRLPGKKTTKLWVPDEEVSPETMVKIQAIKMMVRWLLGMKNNHSKSGTSTLRLLTTILHSDGDLTEQGKISKPDMSRLRLAAGSAIVKLAQEPCYHEIITLEQYQLCALAINDECYQVRQVFAQKLHKGLSRLRLPLEYMAICALCAKDPVKERRAHARQCLVKNITVRREYLKQHAAVSEKLLSLLPEYVVPYTIHLLAHDPDYVKVQDIEQLKDVKECLWFVLEILMAKNENNSHAFIRKMVENIKQTKDAQGPDDTKMNEKLYTVCDVAMNIIMSKSTTYSLESPKDPVLPARFFTQPDKNFSNTKNYLPPEMKSFFTPGKPKTANVLGAVNKPLSSAGKQSQTKSSRMETVSNASSSSNPSSPGRIKGRLDSSEMDHSENEDYTMSSPLPGKKSDKREDPDLSELEKPRSRKKAPVTDPEEKLGMDDLTKLVQEQKPKGSQRGRKRGRTASDSDEQQWPEEKRHKEELLENEDEQNSPPKKGKRGRPPKPLGGGTSKEEPTMKTSKKGNKKKLVPPVVDDDEEEERQIGNTEHKSKSKQHRTSKRAQQRAESPETSAVESTQSTPQKGRGRPSKAPSPSQPPKKIRVGRSKQVATKENDSSEEMDVLQASSPVSDDTTQEGAEEEDISVGNVRRRSSKRERR
B1: the binding result in assay [2] is reported as “binds”.

B2: Pds5a (protein, UniProt Q6A026 1-1332)
chain: MDFTQPKPATALCGVVSADGKIAYPPGVKEITDKITTDEMIKRLKMVVKTFMDMDQDSEDEKQQYLPLALHLASEFFLRNPNKDVRLLVACCLADIFRIYAPEAPYTSHDKLKDIFLFITRQLKGLEDTKSPQFNRYFYLLENLAWVKSYNICFELEDCNEIFIQLFRTLFSVINNSHNTKVQMHMLDLMSSIIMEGDGVTQELLDSILINLIPAHKNLNKQSFDLAKVLLKRTVQTIEACIANFFNQVLVLGRSSVSDLSEHVFDLIQELFAIDPQLLLSVMPQLEFKLKSNDGEERLAVVRLLAKLFGSKDSDLATQNRPLWQCFLGRFNDIHVPVRLESVKFASHCLMNHPDLAKDLTEYLKVRSHDPEEAIRHDVIVTIITAAKRDLALVNDQLLGFVRERTLDKRWRVRKEAMMGLAQLYKKYCLHGEAGKEAAEKVSWIKDKLLHIYYQNSIDDKLLVEKIFAQYLVPHNLETEERMKCLYYLYASLDPNAVKALNEMWKCQNMLRSHVRELLDLHKQPTSEANCSAMFGKLMTIAKNLPDPGKAQDFVKKFNQVLGDDEKLRSQLELLISPTCSCKQADVCVREIARKLANPKQPTNPFLEMVKFLLERIAPVHIDSEAISALVKLMNKSIEGTADDEEEGVSPDSAIRSGLELLKVLSFTHPTSFHSAETYESLLQCLRMEDDKVAEAAIQIFRNTGHKIETDLPQIRSTLIPILHQKAKRGTPHQAKQAVHCIHAIFSNKEVQLAQIFEPLSRSLNADVPEQLITPLVSLGHISMLAPDQFASPMKSVVANFIVKDLLMNDRSTGEKNGKLWSPDEEVSPEVLAKVYLLRLLVRWLLGMKNNQSKSANSTLRLLSAMLVSEGDLTEQKRISKSDMSRLRLAAGSAIMKLAQEPCYHEIITPEQFQLCALVINDECYQVRQIFAQKLHKALVKLLLPLEYMAIFALCAKDPVKERRAHARQCLLKNISIRREYIKQNPMATEKLLSLLPEYVVPYMIHLLAHDPDFTRSQDVDQLRDIKECLWFMLEVLMTKNENNSHAFMKKMAENIKLTRDAQSPDESKTNEKLYTVCDVALCVINSKSALCNADSPKDPVLPMKFFTQPEKDFCNDKSYISEETRVLLLTGKPKPTGVLGTVNKPLSATGRKPYVRSAGTETGSNINANSELSPSAGSRSREQSSEASETGVSENEENPVRIISVTPVKNIDTVKNKEINSDQSTQGNISSDRGKKRIVTAAGAENIQKPDEKVDESGPPAPSKPRRGRRPKSESQGNATKNDDLNKPVSKGRKRAAGSQESLEAGNAKAPKLQDGAKKAVPAERQIDLQR
On to B2, for which the binding entry in assay [3] is reported as “binds”.
